The supplement of paper PMC6078165

System: MDAMB468
Test: relative JC-1 red fluorescence (viability) vs pre-drug, coculture with fibroblast (fraction); higher = more viable cancer cells
Experimental: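 JC-1 labelled TNBC cells cocultured 1:1 (1,500 cells each) with CellTrace Violet stained primary or stromal fibroblasts in 384-well plates in FluoroBrite medium, treated with one of 42 anticancer drugs at 0.1, 1, 10 or 100 uM. JC-1 red fluorescence (mitochondrial integrity in cancer cells only) was read by plate reader every 8 h for 72 h. Values are normalised to each well's pre-drug value. The stock of one drug was tenfold lower, so its dose labels may be too high.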

CCc1c2c(nc3ccc(OC(=O)N4CCC(N5CCCCC5)CC4)cc13)-c1cc3c(c(=O)n1C2)COC(=O)[C@]3(O)CC [Irinotecan]
relative JC-1 red fluorescence
Conditions | 8 h | 16 h | 24 h | 32 h | 40 h | 48 h | 56 h | 64 h | 72 h
0.1 µM, coculture fibroblast: C12385 | 0.884 | 0.837 | 0.837 | 0.789 | 0.753 | 0.756 | 0.726 | 0.712 | 0.717
0.1 µM, coculture fibroblast: H6013 | 0.856 | 0.843 | 0.799 | 0.782 | 0.732 | 0.729 | 0.697 | 0.68 | 0.64
0.1 µM, coculture fibroblast: H6019 | 0.8251 | 0.809 | 0.794 | 0.744 | 0.707 | 0.701 | 0.644 | 0.612 | 0.59
0.1 µM, coculture fibroblast: H6076 | 0.899 | 0.884 | 0.907 | 0.95 | 0.872 | 0.887 | 0.876 | 0.869 | 0.914
0.1 µM, coculture fibroblast: H6231 | 0.825 | 0.911 | 0.804 | 0.793 | 0.739 | 0.722 | 0.675 | 0.647 | 0.63
0.1 µM, coculture fibroblast: HADF | 0.8911 | 0.8521 | 0.8044 | 0.78445 | 0.7347 | 0.7247 | 0.68525 | 0.668 | 0.634
0.1 µM, coculture fibroblast: HCFa | 0.8681 | 0.8376 | 0.7841 | 0.756 | 0.69 | 0.679 | 0.631 | 0.598 | 0.562
0.1 µM, coculture fibroblast: HCPF | 0.871 | 0.895 | 0.822 | 0.8398 | 0.766 | 0.742 | 0.704 | 0.6957 | 0.6982
0.1 µM, coculture fibroblast: HHSteC | 0.9034 | 0.8737 | 0.8382 | 0.8084 | 0.7707 | 0.7659 | 0.693 | 0.664 | 0.611
0.1 µM, coculture fibroblast: HMF | 0.825 | 0.892 | 0.843 | 0.842 | 0.763 | 0.753 | 0.71 | 0.699 | 0.696
0.1 µM, coculture fibroblast: HPFa | 0.9173 | 0.8616 | 0.835 | 0.771 | 0.737 | 0.726 | 0.657 | 0.619 | 0.5367
0.1 µM, coculture fibroblast: HUF | 0.9024 | 0.81803 | 0.766 | 0.7 | 0.659 | 0.64 | 0.596 | 0.587 | 0.569
0.1 µM, coculture fibroblast: Hs5 | 0.937 | 0.921 | 0.9504 | 0.9748 | 0.923 | 0.903 | 0.8921 | 0.8681 | 0.922
0.1 µM, coculture fibroblast: Hs27A | 0.8758 | 0.8218 | 0.7715 | 0.767 | 0.7101 | 0.707 | 0.673 | 0.653 | 0.613
0.1 µM, coculture fibroblast: Hs343T | 0.8535 | 0.844 | 0.86 | 0.8853 | 0.812 | 0.813 | 0.78 | 0.787 | 0.794
0.1 µM, coculture fibroblast: WS1 | 0.848 | 0.791 | 0.763 | 0.713 | 0.667 | 0.642 | 0.618 | 0.601 | 0.596
1 µM, coculture fibroblast: C12385 | 0.8569 | 0.844 | 0.823 | 0.78 | 0.759 | 0.77 | 0.739 | 0.727 | 0.724
1 µM, coculture fibroblast: H6013 | 0.8724 | 0.866 | 0.824 | 0.801 | 0.79 | 0.799 | 0.773 | 0.769 | 0.714
1 µM, coculture fibroblast: H6019 | 0.843 | 0.838 | 0.82 | 0.786 | 0.769 | 0.768 | 0.732 | 0.709 | 0.693
1 µM, coculture fibroblast: H6076 | 0.891 | 0.863 | 0.8183 | 0.8167 | 0.753 | 0.763 | 0.7471 | 0.735 | 0.7783
1 µM, coculture fibroblast: H6231 | 0.827 | 0.84736 | 0.7921 | 0.7829 | 0.71 | 0.689 | 0.648 | 0.624 | 0.618
1 µM, coculture fibroblast: HADF | 0.885 | 0.888 | 0.8199 | 0.81133 | 0.766 | 0.754 | 0.721 | 0.705 | 0.666
1 µM, coculture fibroblast: HCFa | 0.8857 | 0.8778 | 0.8252 | 0.787 | 0.735 | 0.727 | 0.672 | 0.636 | 0.5823
1 µM, coculture fibroblast: HCPF | 0.828 | 0.901 | 0.841 | 0.8342 | 0.773 | 0.7191 | 0.665 | 0.644 | 0.63
1 µM, coculture fibroblast: HHSteC | 0.925 | 0.89 | 0.837 | 0.793 | 0.753 | 0.741 | 0.676 | 0.653 | 0.61
1 µM, coculture fibroblast: HMF | 0.8545 | 0.925 | 0.8707 | 0.842 | 0.764 | 0.752 | 0.6968 | 0.677 | 0.662
1 µM, coculture fibroblast: HPFa | 0.904 | 0.8543 | 0.812 | 0.7501 | 0.71991 | 0.705 | 0.6389 | 0.607 | 0.5276
1 µM, coculture fibroblast: HUF | 0.8773 | 0.8249 | 0.791 | 0.732 | 0.687 | 0.668 | 0.623 | 0.606 | 0.587
1 µM, coculture fibroblast: Hs5 | 0.97 | 0.953 | 0.94 | 0.911 | 0.849 | 0.819 | 0.799 | 0.762 | 0.771
1 µM, coculture fibroblast: Hs27A | 0.828 | 0.858 | 0.773 | 0.762 | 0.712 | 0.702 | 0.666 | 0.639 | 0.602
1 µM, coculture fibroblast: Hs343T | 0.841 | 0.85 | 0.792 | 0.76 | 0.687 | 0.668 | 0.631 | 0.618 | 0.621
1 µM, coculture fibroblast: WS1 | 0.8454 | 0.803 | 0.7642 | 0.7063 | 0.6663 | 0.644 | 0.622 | 0.6 | 0.596

Values are relative to the signal before dosing, not to a vehicle control; the signal also falls without drug.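 Fibroblast labels name human fibroblasts: mostly primary ones from tissues such as uterus (C12385, HUF), lung (H6013), bone (Hs27A), adrenal (HADF) and skin (WS1), plus mammary HMF and breast cancer-associated Hs343T. The cancer cells are basal-like or mesenchymal-like triple-negative breast cancer lines. The paper calls a changed response a hit when it shifts by more than 3x the replicate standard deviation. The tissue of the other fibroblasts is not given here.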
